According to article PMC10834545:
No constants are given. Whether binding was seen depends on the method and setting. Binding seen in cells or lysates may run through a third protein. These calls come from enrichment with a bait or labelling near it, and not all partners need be listed. Tags and fused reporters may be left off the sequences shown.

The chains behind the UniProt entries cited, without tags or fusion partners.
UniProt P01106: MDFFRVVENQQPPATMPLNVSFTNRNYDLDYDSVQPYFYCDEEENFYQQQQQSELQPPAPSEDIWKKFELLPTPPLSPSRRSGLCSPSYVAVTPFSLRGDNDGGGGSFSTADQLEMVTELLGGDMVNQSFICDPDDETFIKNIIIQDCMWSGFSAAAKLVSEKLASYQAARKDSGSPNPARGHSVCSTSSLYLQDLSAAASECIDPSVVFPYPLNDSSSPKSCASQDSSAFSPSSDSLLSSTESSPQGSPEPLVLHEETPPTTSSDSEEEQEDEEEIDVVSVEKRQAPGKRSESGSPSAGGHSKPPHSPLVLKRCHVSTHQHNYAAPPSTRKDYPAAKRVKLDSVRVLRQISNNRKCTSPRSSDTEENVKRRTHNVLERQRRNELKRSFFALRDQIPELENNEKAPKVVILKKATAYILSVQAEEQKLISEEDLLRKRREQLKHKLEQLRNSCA

Biological target: T1, Flag-tagged follistatin-like 3 (FSTL3), overexpressed from lentivirus in FSTL3-OE HCT116 cells (UniProt O95633)
T1 sequence: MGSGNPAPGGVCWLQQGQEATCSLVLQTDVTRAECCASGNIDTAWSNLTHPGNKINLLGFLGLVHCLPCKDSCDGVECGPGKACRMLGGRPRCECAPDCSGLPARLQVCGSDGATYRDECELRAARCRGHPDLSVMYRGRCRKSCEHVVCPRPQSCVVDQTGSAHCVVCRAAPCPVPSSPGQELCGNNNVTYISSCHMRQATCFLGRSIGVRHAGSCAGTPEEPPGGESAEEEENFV
Test: affinity purification with mass spectrometry; anti-Flag immunoprecipitate from lysate of Flag-tagged FSTL3-OE HCT116 cells; 10% gel, silver staining, LC-MS/MS

binding: binds
Substance: MYC proto-oncogene, bHLH transcription factor (c-Myc), endogenous in HCT116 cells (from UniProt P01106 1-454)
